Reference: PubChem BioAssay AID1347075 (National Center for Advancing Translational Sciences (NCATS), 2019)
In all, about 400,000 compounds went through this assay and about 5,500 (1.4%) were called active. Inconclusive means that the source gave no clear call. Such entries were picked first, then a sample of the others. Calls come from the whole dose curve; as a rule, active = well fitted cell-killing curve with a large enough effect; inconclusive = small, poorly fitted or top-dose-only effect, or effect the other way; inactive = flat fitted curve, though single readings scatter. Potencies of inconclusive entries are doubtful fits and often do not repeat.

Assay: qHTS assay for MDR1-selective chemotherapeutics: Primary screen using the parental adenocarcinoma cell KB-3-1; note: nearly all actives have a fitted effect of over 60% in size
Details: KB-3-1 viability, CellTiter-Glo ATP luminescence, 72 h; activity change, negative = cytotoxic: at 46.1 µM (top of the series)
Outline: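 Cells are dispensed, compounds pinned in, plates held at 37 °C for 72 h, then CellTiter-Glo is added and luminescence read after 10 minutes. Cell line: parental KB-3-1 in phenol-red-free DMEM, 10% FBS.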
% is set by controls: 0 for no effect and ±100 for the full control effect; potency is the fitted concentration of half-maximal effect.

Row | SMILES | Potency | activity change, negative = cytotoxic
1 | O=C(c1ccccc1)c1ccc(OCC(O)CNCc2cccc(Cl)c2)cc1 (configuration not stated) | inactive | 
2 | CC(Oc1ccc(Br)cc1)C(=O)Nc1cc(Cl)ccc1N1CCN(C)CC1 (configuration not stated) | inconclusive: 29.1 µM [cytotoxic, single point] | 
3 | C=CCNC(=O)/C(C#N)=C\c1cc(Cl)c(OCC)c(OC)c1 | inactive | 
4 | COc1ccc(OCCCC(=O)NNC(=O)c2ccncc2)cc1 | inactive | 
5 | CC1(C(=O)Nc2ccc3c(c2)OCCO3)CCN1Cc1csc2ccccc12 (configuration not stated) | inactive | 
6 | Cc1cc(NC(=O)c2cc(-c3cccs3)nc3ccccc23)no1 | active: 20.6 µM | 
7 | Cc1nn(CC(=O)N2CCN(c3cccc(C(F)(F)F)c3)CC2)c(=O)c2cccn12 | inactive | 
8 | COC(=O)c1ccc(N(C(=O)c2ccco2)C(C(=O)NC2CCCC2)c2ccco2)cc1 (configuration not stated) | inactive | 
9 | OC(COc1ccc(Cl)cc1Cl)CN1CCc2ccccc2C1 (configuration not stated) | inconclusive: 32.6 µM [cytotoxic, single point] | 
10 | Cc1ccc(S(=O)(=O)N2CCN(C(=O)c3cc(C4CC4)nc4c3cnn4C(C)C)CC2)cc1 | inconclusive: 20.6 µM [cytotoxic, single point] | 
11 | CCOc1ccc(OCC)c(NC(=O)Nc2ccc3c(c2)N(C)C(=O)CS3)c1 | inconclusive: 29.1 µM [cytotoxic, single point] | 
12 | Cc1ccc(S(=O)(=O)N2CCOCC2)cc1C(=O)Nc1nc(-c2cccnc2)cs1 | inactive | 
13 | Cc1cc(=O)n2c(n1)SCOC2 | inactive | 
14 | COC(=O)c1sccc1S(=O)(=O)N(CC(=O)NCc1ccc(F)cc1)c1ccc(Cl)cc1 | inactive | 
15 | COc1ccc(CNCc2ccc(OC)c3ccccc23)cc1 | inactive | 
16 | CN(C)c1ccc(Cc2cc3c(O)ccc(O)c3cc(Cc3ccc(N(C)C)cc3)c2=O)cc1 | inconclusive: 29.1 µM [cytotoxic, single point] | 
17 | COc1ccc(-c2c(NC(=O)c3ccco3)oc3ccccc3c2=O)cc1OC | inconclusive: 0.0073 µM [rising, full curve] | 
18 | O=C(CSc1ccsc1[N+](=O)[O-])N1CCN(c2ccccc2)CC1 | active: 5.8 µM | 
19 | CCOC(=O)CSc1nnc(CSc2nc3sc4c(c3c(=O)[nH]2)CCC4)n1-c1ccccc1 | inactive | 
20 | CCOc1ccc(NC(=S)NC(=O)/C=C/c2ccc(C)cc2)c([N+](=O)[O-])c1 | inconclusive: 29.1 µM [cytotoxic, single point] | 
21 | COc1ccccc1NC(=O)CSC1=Nc2ccccc2C2=NC(CC(=O)NCc3cccs3)C(=O)N12 (configuration not stated) | inactive | 
22 | COc1ccc(CN2CCN(C(=O)c3ccc(-c4ccccc4)cc3)CC2)c(OC)c1OC | inactive | 
23 | Cc1cc(C)nc(N2CCN(c3nc(-c4ccccc4)nc4c3oc3ccccc34)CC2)n1 | inactive | 
24 | Cc1ccccc1NC(=S)N=Nc1c(O)n(C)c2ccc(S(=O)(=O)N3CCOCC3)cc12 | inconclusive: 20.6 µM [cytotoxic, single point] | 

Three entries picked at random from those above, as already listed:
Row | SMILES | Potency | activity change, negative = cytotoxic
14 | COC(=O)c1sccc1S(=O)(=O)N(CC(=O)NCc1ccc(F)cc1)c1ccc(Cl)cc1 | inactive | 
8 | COC(=O)c1ccc(N(C(=O)c2ccco2)C(C(=O)NC2CCCC2)c2ccco2)cc1 (configuration not stated) | inactive | 
24 | Cc1ccccc1NC(=S)N=Nc1c(O)n(C)c2ccc(S(=O)(=O)N3CCOCC3)cc12 | inconclusive: 20.6 µM [cytotoxic, single point] | 

Further results.

Row | SMILES | Potency | activity change, negative = cytotoxic
25 | COc1ccc2[nH]c(C(=O)NCc3ccccc3)c(C)c2c1 | inconclusive: 18.4 µM [cytotoxic, single point] | 
26 | Cc1ccc(S(=O)(=O)N2CCC(=O)N([C@H](COCc3ccc(Cl)c(Cl)c3)Cc3ccccc3)CC2)cc1 | inconclusive: 18.4 µM [cytotoxic, partial curve, poor fit] | 
27 | O=C(Nc1nc(-c2ccc(-c3ccccc3)cc2)cs1)c1cnccn1 | inconclusive: 29.1 µM [cytotoxic, single point] | 
28 | COc1cccc(C(=O)Nc2ccc3c(c2)OC[C@H](C)N(CCc2ccccc2)C[C@@H](C)[C@@H](OC)CN(C)C3=O)c1 | inconclusive: 29.1 µM [cytotoxic, single point] | 
29 | C=Cc1ccc(Cn2c(=O)cc(C)c3c(C)nn(C)c32)cc1 | inconclusive: 29.1 µM [cytotoxic, single point] | 
30 | CCCCn1c(/N=C/c2ccccc2NS(=O)(=O)c2ccc(C)cc2)nc2ccccc21 | inactive | 
31 | Cc1csc(=O)n1CCC(=O)OCc1nnc(-c2ccccc2Cl)o1 |  | inconclusive: -86.1%
32 | CCS(=O)(=O)N1CCN(c2ccc([N+](=O)[O-])c(NC(C)c3ccccc3)c2)CC1 (configuration not stated) | inactive | 
33 | COc1cc([N+](=O)[O-])cc(/C=N/NC(=O)CSc2ccccn2)c1O | inconclusive: 29.1 µM [cytotoxic, single point] | 
34 | COc1cc(C(=O)Nc2ccc3c(c2)OCCO3)ccc1-n1cnnn1 | inconclusive: 6.51 µM [rising, partial curve, poor fit] | 
35 | CCCC[n+]1c2ccccc2cc2ccccc21 | active: 16.4 µM | 
36 | CC1(C)Cc2nc(-c3ccccc3)nc(SCC(=O)N3CCOCC3)c2CO1 | inconclusive: 2.59 µM [rising, partial curve] | 
37 | COc1cc(OC)c(OC)cc1/C=N/NC(=S)NCC1CCCO1 (configuration not stated) | inactive | 
38 | COc1ccccc1/C=N/OCc1cc(C(C)=O)ccc1OC | inactive | 
39 | CCCCNC(=O)C1(C)CCCCCN1Cc1cccc2c(OC)cc(C(=O)OCC)cc12 (configuration not stated) | inconclusive: 29.1 µM [cytotoxic, single point] | 
40 | COc1c(N)c2c(c([N+](=O)[O-])c1OC)C(=O)OC2 | inconclusive: 2.31 µM [cytotoxic, full curve] | 
41 | O=c1cc(O)c2c([nH]1)CCC2 | inconclusive: 29.1 µM [rising, partial curve, poor fit] | 
42 | Cc1ccccc1-c1nnc(-c2ccc(Br)cc2)o1 | inactive | 
43 | CCCn1c(N)c(C(=O)CSc2n[nH]c(-c3ccc(C)cc3)n2)c(=O)[nH]c1=O | inconclusive: 14.6 µM [rising, single point] | 
44 | COC(=O)N1c2ccccc2C=Cc2ccccc21 | inconclusive: 23.1 µM [cytotoxic, single point] | 
45 | CCOc1ccc(CN(C)C(=O)CCNC(=O)c2ccco2)cc1 | inactive | 
46 | O[C@H]1CN(CC2CCCCC2)[C@@H](c2ccc(Cl)cc2)C[C@@H]1n1cc(C2CC2)nn1 | inconclusive: 18.4 µM [cytotoxic, single point] | 
47 | O=c1c2ccccc2nc(/C=C/c2cc(Br)ccc2O)n1CCO | inconclusive: 20.6 µM [cytotoxic, single point] | 
